Measurements published in article doi:10.1101/2021.10.25.465562.
Read-outs that look alike come from different tables or passages of the source. No constants are given. Whether binding was seen depends on the method and setting. In cells and extracts the contact can be indirect. Some entries that bind do so weakly or less than the wild type.

Protein sequences, listed by entry. Tags and fused reporters are not part of them.
UniProt Q60867: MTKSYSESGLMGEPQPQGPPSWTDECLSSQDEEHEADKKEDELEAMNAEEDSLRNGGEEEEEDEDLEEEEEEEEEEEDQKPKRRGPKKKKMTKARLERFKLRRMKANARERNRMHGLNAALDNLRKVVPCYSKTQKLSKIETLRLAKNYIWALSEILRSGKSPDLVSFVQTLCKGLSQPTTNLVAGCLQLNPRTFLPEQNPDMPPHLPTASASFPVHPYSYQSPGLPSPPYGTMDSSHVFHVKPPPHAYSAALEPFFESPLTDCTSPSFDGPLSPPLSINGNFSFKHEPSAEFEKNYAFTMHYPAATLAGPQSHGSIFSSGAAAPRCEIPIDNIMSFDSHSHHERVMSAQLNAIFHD
UniProt P70288: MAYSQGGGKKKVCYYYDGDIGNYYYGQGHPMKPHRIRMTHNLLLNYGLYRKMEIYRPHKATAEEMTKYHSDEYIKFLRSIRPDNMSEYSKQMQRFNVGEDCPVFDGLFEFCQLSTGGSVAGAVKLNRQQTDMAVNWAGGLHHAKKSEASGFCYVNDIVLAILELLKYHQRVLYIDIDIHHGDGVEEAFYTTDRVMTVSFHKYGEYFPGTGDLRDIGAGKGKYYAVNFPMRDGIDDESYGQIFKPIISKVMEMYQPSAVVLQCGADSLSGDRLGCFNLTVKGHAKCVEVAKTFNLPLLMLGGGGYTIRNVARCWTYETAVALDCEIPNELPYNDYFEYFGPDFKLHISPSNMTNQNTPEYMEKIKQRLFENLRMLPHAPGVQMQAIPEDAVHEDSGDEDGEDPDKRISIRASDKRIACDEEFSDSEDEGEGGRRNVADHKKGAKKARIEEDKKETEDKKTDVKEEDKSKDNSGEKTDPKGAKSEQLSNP
UniProt Q60987: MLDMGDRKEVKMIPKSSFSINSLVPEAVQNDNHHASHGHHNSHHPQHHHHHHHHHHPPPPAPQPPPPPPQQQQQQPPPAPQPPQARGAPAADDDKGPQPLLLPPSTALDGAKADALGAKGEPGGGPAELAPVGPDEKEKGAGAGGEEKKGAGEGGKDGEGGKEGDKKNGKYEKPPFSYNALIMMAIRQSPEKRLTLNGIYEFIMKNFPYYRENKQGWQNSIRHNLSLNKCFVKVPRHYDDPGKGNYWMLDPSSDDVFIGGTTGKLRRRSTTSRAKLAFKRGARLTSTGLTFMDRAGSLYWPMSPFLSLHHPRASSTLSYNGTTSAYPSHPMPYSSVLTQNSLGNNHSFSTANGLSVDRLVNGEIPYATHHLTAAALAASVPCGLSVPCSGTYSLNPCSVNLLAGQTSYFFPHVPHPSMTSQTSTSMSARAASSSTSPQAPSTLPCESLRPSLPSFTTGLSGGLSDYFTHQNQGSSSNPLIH

Columns and labels:
Test in all cases: co-IP
[1] = target: Neurogenic differentiation 1 (NEUROD1) (mouse (endogenous in hippocampus and primary hippocampal neurons)) (UniProt Q60867)
[2] = target: HDAC2 (mouse (endogenous in hippocampal tissue)) (UniProt P70288)
[3] = target: Neurogenic differentiation 1 (NEUROD1) (mouse (endogenous in hippocampus and primary hippocampal neurons)) (UniProt Q60867); remark: listed apart in the source

Measured: binding

Forkhead box G1 (FOXG1) (from UniProt Q60987 1-481)
binds: all assays above
